# In patent US20220088053:
# Molecular target: T1, USB1 wild-type (Homo sapiens) (UniProt Q9BQ65)
# T1 sequence: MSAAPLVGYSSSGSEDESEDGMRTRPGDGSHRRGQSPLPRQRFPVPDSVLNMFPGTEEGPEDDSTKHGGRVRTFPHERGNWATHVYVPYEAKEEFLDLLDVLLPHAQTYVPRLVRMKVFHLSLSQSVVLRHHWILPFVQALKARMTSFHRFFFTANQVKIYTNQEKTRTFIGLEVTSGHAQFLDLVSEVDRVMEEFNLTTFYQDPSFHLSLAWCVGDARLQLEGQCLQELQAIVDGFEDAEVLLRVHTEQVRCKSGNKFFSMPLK
# Assay: enzyme reaction in vitro
# Conditions: 37 C, 1 mM EDTA, purified recombinant protein, protein details: His (pColdI vector, E. coli Rosetta2), label: 5'-FAM
sequence,measurement,setting,value
AAUUCGUGAAGCGUUCCAUAUUUUU [U6-oU],activity on this sequence,"removes a single U, oligo(U) tail not progressively removed",less active
AAUUCGUGAAGCGUUCCAUAUUUUUAAAAAAA [U6-oA],activity on this sequence,"rapid removal of 3' adenosines, variant of U6-oU",active
AAUUCGUGAAGCGUUCCAUAUUUUUAAUAAUAAUAAUAA [U6-oUA],activity on this sequence,"trimmed UAA intermediates seen, variant of U6-oU",active
CCUUUCCUUUUUUUUU [16mer-oU],activity on this sequence,single U removal confirmed with shorter RNA substrates,less active
UCCCUGAGACCCUUUAACCUGUGAAAAAA [miR125a-oA],activity on this sequence,"efficient time-dependent deadenylation, variant of miR125a-native",active
UCCCUGAGACCCUUUAACCUGUGAUUAAA [miR125a-oUA],activity on this sequence,"3' adenosines removed, variant of miR125a-native",active
UCCCUGAGACCCUUUAACCUGUGAUUUUU [miR125a-oU],activity on this sequence,"slowly removes one 3' U only, variant of miR125a-native",less active

# A weaker result is weaker than the reference pair of the same experiment. Where a protein sequence is shown, tags need not be part of it.
